Test [1] has as its target Flag-tagged Δα2 Nanog (mouse) (UniProt Q80Z64). Description: co-IP; Fig. 3g: Cops2 with Flag-tagged WT, Δα1, Δα2 and Δα3 Nanog; cells not told; Western blot.
Test [2] deals with Flag-tagged Δα3 Nanog (mouse) (UniProt Q80Z64). The description is as above.

Amino acid sequences for entries named in this document (tags omitted). A change or cut given only in a name is not applied to a line headed by its entry.
UniProt Q80Z64: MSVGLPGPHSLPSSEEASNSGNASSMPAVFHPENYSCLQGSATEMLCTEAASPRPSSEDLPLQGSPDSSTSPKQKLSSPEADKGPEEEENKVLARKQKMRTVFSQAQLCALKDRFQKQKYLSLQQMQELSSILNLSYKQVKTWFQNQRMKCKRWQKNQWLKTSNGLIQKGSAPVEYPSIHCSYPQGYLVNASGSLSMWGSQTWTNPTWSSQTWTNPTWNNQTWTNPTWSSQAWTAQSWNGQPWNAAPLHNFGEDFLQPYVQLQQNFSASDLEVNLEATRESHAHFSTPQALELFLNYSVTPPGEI
UniProt P61202: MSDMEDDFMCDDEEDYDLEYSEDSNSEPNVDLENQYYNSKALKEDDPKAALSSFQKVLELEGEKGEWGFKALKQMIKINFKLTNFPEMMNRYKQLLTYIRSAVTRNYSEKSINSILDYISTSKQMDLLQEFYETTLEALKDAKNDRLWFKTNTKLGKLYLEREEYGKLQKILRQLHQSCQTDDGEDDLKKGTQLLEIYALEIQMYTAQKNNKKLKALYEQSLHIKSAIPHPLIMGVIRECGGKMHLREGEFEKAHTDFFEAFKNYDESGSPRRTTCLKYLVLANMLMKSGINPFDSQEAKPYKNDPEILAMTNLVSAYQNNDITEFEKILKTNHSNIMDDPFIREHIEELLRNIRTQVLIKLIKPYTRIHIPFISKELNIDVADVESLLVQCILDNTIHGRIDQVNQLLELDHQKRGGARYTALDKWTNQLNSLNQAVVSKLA

Results are given in words; binding and its absence hold for the method and conditions named. In cells and extracts the contact can be indirect. Binding can be weak; no strength is given.

On to Cops2 (from UniProt P61202 1-443), for which the binding result in test [1] and in test [2] was “binds” in each case.

Source of the values: paper PMC4881025.
